The list shows only some results of the screen, not a fair sample: it gathers tests that were run many times, whatever their T/C, doses with no T/C, and many T/C values between a quarter and a half above the control. Further doses and runs are listed elsewhere. T/C: endpoint of the treated group in % of that of the vehicle group. Some doses have a count of surviving animals in place of a T/C: the source files T/C as zero there, which appears to mark a toxic dose or a test without result, not a measured value. Some doses without a T/C left all or most animals alive at the check, yet need not have been tolerated: the source hardly ever lists a survival T/C far under the control, and the zero likely stands for such cases as well. Counts of survivors are from the toxicity check (mostly the fifth day) where no day follows; animals may have died later. Schedules are NCI's codes, taken here to give the interval after Q, in days (D) or hours (H), and the number of doses after X. Some entries hold several experiments; their values stand side by side, smallest first. Where survival is the endpoint, this PubChem deposit counts one and a half times the control or more as active, and values a quarter to a half above the control carry no call in these data; other NCI protocols may use other cut-offs. Some T/C values carry the count of animals alive at the toxicity check (mostly the fifth day); without a count, all were alive then.
Tested on: BDF1 mice, P388 leukemia ip, median survival T/C
Assay: NCI In Vivo Anticancer Drug Screen. Data for tumor model P388 Leukemia (intraperitoneal) in B6D2F1 (BDF1) mice
Conditions: T/C endpoint: median survival time, higher T/C = longer survival
In short: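 Read-out is survival of treated animals expressed relative to the vehicle group, as a T/C ratio.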

[1] = dose: 200.0 mg/kg/injection, schedule: Q04DX003 (ip), vehicle: saline with Tween-80
[2] = dose: 400.0 mg/kg/injection, schedule: Q04DX003 (ip), vehicle: saline with Tween-80
[3] = dose: 50.0 mg/kg/injection, schedule: Q04DX003 (ip), vehicle: saline with Tween-80
[4] = dose: 100.0 mg/kg/injection, schedule: Q04DX003 (ip), vehicle: saline with Tween-80
[5] = dose: 100.0 mg/kg/injection, schedule: Q01DX009 (ip), vehicle: saline
[6] = dose: 200.0 mg/kg/injection, schedule: Q01DX009 (ip), vehicle: saline
[7] = dose: 400.0 mg/kg/injection, schedule: Q01DX009 (ip), vehicle: saline
[8] = dose: 50.0 mg/kg/injection, schedule: Q01DX009 (ip), vehicle: other
[9] = dose: 12.5 mg/kg/injection, schedule: Q01DX009 (ip), vehicle: saline
[10] = dose: 25.0 mg/kg/injection, schedule: Q01DX009 (ip), vehicle: saline
[11] = dose: 50.0 mg/kg/injection, schedule: Q01DX009 (ip), vehicle: saline
[12] = dose: 100.0 mg/kg/injection, schedule: Q04DX003 (ip), vehicle: Klucel (hydroxypropylcellulose) (HPC)

## CN(C)[C@@H]1C(=O)C(C(N)=O)=C(O)[C@@]2(O)C(=O)C3=C(O)c4c(O)cccc4C[C@H]3C[C@@H]12
dose: 15.0 mg/kg/injection, schedule: Q01DX010 (ip), vehicle: water
  T/C: 127 % of control
dose: 30.0 mg/kg/injection, schedule: Q01DX010 (ip), vehicle: saline
  T/C: 135 % of control [5 of 6 alive]
dose: 30.0 mg/kg/injection, schedule: Q01DX010 (ip), vehicle: water
  T/C: 127 and 136 % of control
dose: 45.0 mg/kg/injection, schedule: Q01DX010 (ip), vehicle: water
  survivor count: 6 of 6
dose: 60.0 mg/kg/injection, schedule: Q01DX010 (ip), vehicle: water
  survivor count: 5 of 6
dose: 75.0 mg/kg/injection, schedule: Q01DX010 (ip), vehicle: water
  survivor count: 0 of 6

## O=[N+]([O-])/C=C/c1ccc([N+](=O)[O-])cc1
[1]
  survivor count: 1 of 6
[2]
  survivor count: 2 of 6

## CCCCCCCCCCCCCCCCNC(C)c1ccccc1 (stereo not given)
[3]
  survivor count: 5 of 6
[4]
  survivor count: 5 of 6
[1]
  survivor count: 2 of 6
[2]
  survivor count: 0 of 6

## O=C(O)c1ccc(NC(=O)C(F)(F)F)cc1
dose: 50.0 mg/kg/injection, schedule: Q04DX003 (ip), vehicle: saline sonified
  survivor count: 5 of 6

## CCOC(=O)COc1ccc(C=O)cc1
dose: 200.0 mg/kg/injection, schedule: Q04DX003 (ip), vehicle: Klucel (hydroxypropylcellulose) (HPC)
  survivor count: 6 of 6

## O=C(O)CCC1(c2ccccc2)CCCC1=O (stereo not given)
dose: 3.12 mg/kg/injection, schedule: Q01DX009 (ip), vehicle: water
  survivor count: 5 of 6
dose: 12.5 mg/kg/injection, schedule: Q01DX009 (ip), vehicle: water
  survivor count: 6 of 6
dose: 25.0 mg/kg/injection, schedule: Q01DX009 (ip), vehicle: water
  survivor count: 6 of 6

## Cc1nc(NN)c(C(N)=O)nc1C
[5]
  survivor count: 4 of 6
dose: 100.0 mg/kg/injection, schedule: Q04DX003 (ip), vehicle: saline
  survivor count: 3 of 6
[6]
  survivor count: 0 of 6
dose: 200.0 mg/kg/injection, schedule: Q04DX003 (ip), vehicle: saline
  survivor count: 2 of 6
[7]
  survivor count: 0 of 6

## O=C(O)CN(Cc1ccccc1)Sc1ccccc1[N+](=O)[O-]
dose: 100.0 mg/kg/injection, schedule: Q04DX003 (ip), vehicle: other
  T/C: 137 % of control

## Cc1cc(C)c(-c2cc(O)c(C)cc2O)c(C)c1
[8]
  T/C: 128 % of control
[3]
  survivor count: 6 of 6
[4]
  survivor count: 6 of 6
dose: 200.0 mg/kg/injection, schedule: Q01DX009 (ip), vehicle: other
  T/C: 148 % of control
dose: 400.0 mg/kg/injection, schedule: Q01DX009 (ip), vehicle: other
  T/C: 138 % of control
[2]
  survivor count: 6 of 6

## CSc1cccc(NC(=O)Oc2cc(C)c(Cl)c(C)c2Cl)c1
dose: 25.0 mg/kg/injection, schedule: Q01DX009 (ip), vehicle: DMSO
  survivor count: 4 of 6

## N#CN=C([S-])[S-].N#CN=C([S-])[S-].[Cu]
[9]
  survivor count: 5 of 6
[10]
  survivor count: 2 of 6
dose: 25.0 mg/kg/injection, schedule: Q04DX003 (ip), vehicle: saline
  survivor count: 1 of 6

## CC1(c2ccccc2)O[C@@H]2C[C@H]3[C@@H]4CCC5=CC(=O)C=C[C@]5(C)[C@@]4(F)[C@@H](O)C[C@]3(C)[C@]2(C(=O)CO)O1 (stereo not given in full)
dose: 100.0 mg/kg/injection, schedule: Q04DX003 (ip), vehicle: alcohol
  T/C: 125 % of control [5 of 6 alive]
[6]
  survivor count: 6 of 6
dose: 200.0 mg/kg/injection, schedule: Q04DX003 (ip), vehicle: alcohol
  T/C: 125 % of control
dose: 300.0 mg/kg/injection, schedule: Q04DX003 (ip), vehicle: saline
  survivor count: 2 of 6 and 5 of 6

## COc1cc2c(c(OC)c1OC)-c1ccc(OC)c(=O)cc1[C@@H](NC=O)CC2
dose: 0.05 mg/kg/injection, schedule: Q01DX010 (ip), vehicle: saline
  T/C: 131 % of control
dose: 0.1 mg/kg/injection, schedule: Q01DX010 (ip), vehicle: saline
  T/C: 140 % of control
dose: 0.19 mg/kg/injection, schedule: Q01DX010 (ip), vehicle: saline
  T/C: 136 % of control
dose: 1.5 mg/kg/injection, schedule: Q01DX009 (ip), vehicle: Klucel (hydroxypropylcellulose) (HPC)
  survivor count: 5 of 6
dose: 1.5 mg/kg/injection, schedule: Q01DX010 (ip), vehicle: saline
  T/C: 141 % of control
dose: 3.0 mg/kg/injection, schedule: Q01DX009 (ip), vehicle: Klucel (hydroxypropylcellulose) (HPC)
  survivor count: 2 of 6
dose: 3.0 mg/kg/injection, schedule: Q01DX010 (ip), vehicle: saline
  survivor count: 2 of 6
dose: 6.0 mg/kg/injection, schedule: Q01DX010 (ip), vehicle: saline
  survivor count: 0 of 6
dose: 45.0 micrograms/kg/injection, schedule: Q01DX009 (ip), vehicle: Klucel (hydroxypropylcellulose) (HPC)
  T/C: 130 % of control

## CC1(c2ccco2)NC(=O)N(Cl)C1=O (stereo not given)
[11]
  survivor count: 5 of 6
[5]
  survivor count: 5 of 6
[6]
  survivor count: 6 of 6
[7]
  survivor count: 3 of 6

## CN1CCN(CCCN2c3ccccc3Sc3ccc(Cl)cc32)CC1
[10]
  T/C: 136 % of control
[11]
  survivor count: 4 of 6

## CC1(C)CC(=O)c2ccccc21
[9]
  survivor count: 6 of 6
[6]
  survivor count: 6 of 6
dose: 300.0 mg/kg/injection, schedule: Q01DX009 (ip), vehicle: saline
  survivor count: 5 of 6
dose: 400.0 mg/kg/injection, schedule: Q04DX003 (ip), vehicle: saline
  survivor count: 2 of 6

## COc1ccc(/C=C(\C)[N+](=O)[O-])cc1OC
[8]
  T/C: 125 % of control

## Clc1ccc(CN2COc3c(ccc4cccnc34)C2)cc1Cl
[1]
  T/C: 129 % of control
[2]
  T/C: 136 % of control

## NCCc1cnc2ccccc2n1
[10]
  T/C: 130 % of control
[5]
  T/C: 125 % of control [5 of 6 alive]

## CCc1ccc2c(c1)N(CCCN(CCCl)CCCl)c1ccccc1S2
dose: 3.1 mg/kg/injection, schedule: Q04DX003 (ip), vehicle: saline with Tween-80
  T/C: 131 % of control
dose: 6.25 mg/kg/injection, schedule: Q04DX003 (ip), vehicle: saline with Tween-80
  T/C: 135 and 137 % of control
dose: 12.5 mg/kg/injection, schedule: Q04DX003 (ip), vehicle: saline with Tween-80
  T/C: 144 and 149 % of control [5 of 6 alive]

## NC1=NC(=S)C2N=C(N=Nc3ccc(C(=O)NC(CCC(=O)O)C(=O)O)cc3)N=C2N1 (stereo not given)
dose: 12.5 mg/kg/injection, schedule: Q01DX009 (ip), vehicle: Klucel (hydroxypropylcellulose) (HPC)
  survivor count: 6 of 6
dose: 25.0 mg/kg/injection, schedule: Q01DX009 (ip), vehicle: Klucel (hydroxypropylcellulose) (HPC)
  survivor count: 6 of 6
dose: 50.0 mg/kg/injection, schedule: Q01DX009 (ip), vehicle: Klucel (hydroxypropylcellulose) (HPC)
  survivor count: 6 of 6
[12]
  survivor count: 6 of 6

## COC12C(COC(N)=O)C3=C(C(=O)C(C)=C(N)C3=O)N1CC1C2N1C (stereo not given)
dose: 32.0 mg/kg/injection, schedule: Q01DX009 (ip), vehicle: saline
  survivor count: 10 of 10

## CCCCNC(C)(C)CCl
dose: 6.25 mg/kg/injection, schedule: Q01DX009 (ip), vehicle: water
  survivor count: 6 of 6
dose: 50.0 mg/kg/injection, schedule: Q04DX003 (ip), vehicle: water
  survivor count: 5 of 6
dose: 100.0 mg/kg/injection, schedule: Q04DX003 (ip), vehicle: water
  survivor count: 3 of 6
dose: 200.0 mg/kg/injection, schedule: Q04DX003 (ip), vehicle: water
  survivor count: 0 of 6

## CC(C)(C)c1cc([N+](=O)[O-])cc(C(C)(C)C)c1O
[12]
  survivor count: 6 of 6
dose: 400.0 mg/kg/injection, schedule: Q04DX003 (ip), vehicle: Klucel (hydroxypropylcellulose) (HPC)
  survivor count: 5 of 6
